# Assay results as given in PubChem BioAssay AID493014 (National Center for Advancing Translational Sciences (NCATS), 2011).
# About 170 (0.05%) of roughly 340,000 compounds were called active. Inconclusive means that the source gave no clear call. Such entries were picked first, then a sample of the others. The call rests on the fitted dose curve; in most records, active means well fitted inhibition curve with a large enough effect in the signal ratio, with a control signal flat (not every such curve was filed as active); inconclusive means small, poorly fitted or top-dose-only effect, or effect the other way, or a change in a side signal; inactive means flat fitted curve, though single readings scatter; the % refers to the signal ratio. A potency beside an inconclusive call is a rough fit, not a confirmed value.
# Experiment: qHTS Assay to Find Inhibitors of Chronic Active B-Cell Receptor Signaling;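 on activity change, negative = inhibition: plate controls were basal doxycycline-induced cells for no effect and cells given 10 µM MG132 for full effect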
# Conditions: ABC-DLBCL IkBa-CBG/CBR reporter, luminescence ratio (green luciferase fused to IkBa over red control in TMD8 lymphoma cells), 4 h; activity change, negative = inhibition: at 46.1 µM (top of the series)
# Summary of the method: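 TMD8 ABC-DLBCL cells carrying doxycycline-inducible green luciferase fused to IkappaBalpha plus unfused red luciferase were exposed to compounds (up to 46 uM) for 4 hrs at 37C. Activity came from the overlap-corrected green/red luminescence ratio.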
# Potency means the concentration at half of the fitted maximal effect.
SMILES,Potency,"activity change, negative = inhibition"
CCNC(=O)CCn1nc(-c2ccc(Cl)cc2)c2ccccc2c1=O,"inconclusive: 14.1 µM [falling, partial curve]",
CCC1CCCCN1C(=S)NC(=O)c1cccc([N+](=O)[O-])c1 (configuration not stated),,inconclusive: 0.0685%
COc1ccc(/C=C/C(=O)Nc2ccc(-n3nncc3-c3ccc(OC)c(OC)c3)cc2)cc1OC,"inconclusive: 11.6 µM [falling, partial curve]",
O=Cc1cn(-c2ccccc2)nc1-c1ccc2c(c1)OCCO2,,inconclusive: -8.47%
Clc1ccc(-n2ncc3c(NC4CCCC4)ncnc32)cc1,"inconclusive: 12.6 µM [falling, partial curve]",
CC(C)CC(NC(=O)c1ccccc1NC(=O)c1ccccc1)C(=O)O (configuration not stated),"inconclusive: 35.5 µM [falling, single point]",
Cc1cc(C(c2ccc(C)o2)c2ccc(C)o2)c(O)c([N+](=O)[O-])c1,,inconclusive: 16.4%
CC(C)(C)c1ccc(C2CC2C(=O)N/N=C\c2ccc[nH]2)cc1 (configuration not stated),,inactive
S=C(NCCc1ccccc1)Nc1ccccn1,,inconclusive: 0.602%
O=C(OCc1c(Cl)cccc1Cl)c1cccnc1,,inconclusive: -12.7%
NS(=O)(=O)c1cc2c(cc1Cl)NC(CSCc1ccccc1)=NS2(=O)=O,,inconclusive: -25.3%
Cc1csc(NC(=O)c2cccn2C)n1,"inconclusive: 5.01 µM [rising, partial curve]",
CC(C)(CO)Nc1ccc([N+](=O)[O-])cc1[N+](=O)[O-],"inconclusive: 35.5 µM [falling, single point]",
C/C(=N\N)c1c(-c2ccccc2)c2cc(C)ccc2[nH]c1=O,,inconclusive: 13.6%
CCc1c(-c2n[nH]c(=S)n2Cc2ccccc2)csc1C,,inactive
Cc1ccn2c(C(=O)N/N=C\c3ccc4c(c3)OCO4)c(C)nc2c1,,inconclusive: -0.846%
CCN(CC)c1ccc(/C=N/NC(=O)c2ccc3c(c2)OCCO3)cc1,,inconclusive: -14.2%
O=C(CC(C(=O)N1CCc2ccccc21)n1ccnc1)N1CCc2ccccc2C1 (configuration not stated),,inactive
COC(=O)c1c(-c2cccnc2)csc1NC(=O)c1ccc2c(c1)OCO2,,inactive
COc1cc(C)c(N)cc1C(C)C,,inconclusive: 0.687%
O=C(O)CCSc1nc2ccccc2n1-c1ccccc1,,inconclusive: 11.9%

SMILES,Potency,"activity change, negative = inhibition"
COc1cccc(OCCOCCN(C)CCO)c1,,inconclusive: 7.56%
Cc1c(NC(=O)C2CC=CCC2C(=O)O)c(=O)n(-c2ccccc2)n1C (configuration not stated),,inconclusive: -0.935%
O=C(COC(=O)c1c[nH]c2ccccc12)Nc1ccccc1,"inconclusive: 18.4 µM [falling, partial curve]",
CCN1CCN(C(=S)NCCc2ccccc2)CC1,,inactive
CCN(CC)S(=O)(=O)c1cc(NC(=O)C(C)N2CCN(c3ccccn3)CC2)ccc1C (configuration not stated),,inconclusive: -8.99%
CCOC(=O)c1cccc(NC(=O)c2ccc3c(c2)OCO3)c1,"inconclusive: 12.6 µM [falling, single point]",
Clc1nc(-c2cccnc2)nc2scc(-c3ccccc3)c12,,inactive
COc1ccc(C(=O)Nc2cccc(-c3cc4ccccc4oc3=O)c2)cc1[N+](=O)[O-],,inconclusive: -3.41%
Cc1nnc(SCC(=O)Nc2sccc2C#N)s1,,inconclusive: -0.314%
O=C(COC(=O)Cn1nnc2ccccc21)NC1CCCC1,,inconclusive: 7.6%
OC(CN1CCN(c2ccccn2)CC1)Cn1c2ccccc2c2ccccc21 (configuration not stated),,inconclusive: -21.8%
COc1ccc(S(=O)(=O)N2CCC(C(=O)Nc3ccccc3N3CCCC3)CC2)cc1OC,,inconclusive: -2.47%
Fc1ccc(/C=C2\CCCC3=C2NC(=S)NC3c2ccc(F)cc2)cc1 (configuration not stated),,inactive
COc1cccc(CNC(=O)c2ccccc2NC(=O)C2=C(C)OCCS2)c1,,inactive
COc1ccc2nccc(/C=C/c3ccnc4ccc(OC)cc34)c2c1,,inconclusive: -1.15%
COc1cccc(-n2c(N)c(C(=O)Nc3c(C)n(C)n(-c4ccccc4)c3=O)c3nc4ccccc4nc32)c1,,inactive
CCCC(C(=O)NC1CCCCC1)N(Cc1ccco1)C(=O)CNS(=O)(=O)c1ccccc1 (configuration not stated),"inconclusive: 0.116 µM [rising, full curve]",
COc1ccc(NC(=O)C2CCC(CNC(=O)[C@@H]3Cc4ccccc4CN3)CC2)cc1 (some centres not stated),"inconclusive: 25.1 µM [falling, single point]",
CCN(CC)c1ccc(C(=O)N/N=C(\C)c2cccnc2)cc1,,inactive
COc1cc(CC(=O)OCC(=O)Nc2cc([N+](=O)[O-])ccc2F)cc(OC)c1OC,"inconclusive: 2.91 µM [falling, partial curve, poor fit]",
N#C/C(=C\C=C\c1ccccc1)C(=O)NCc1ccco1,,inactive

SMILES,Potency,"activity change, negative = inhibition"
Cc1nnc(SCc2ccccc2)[nH]c1=O,"inconclusive: 22.4 µM [falling, single point]",
C(=N\N=C\c1ccccc1)/c1ccccc1,,inconclusive: -11.6%
COc1ccc(C2=NN(C(=O)c3ccccc3)C(c3ccc(OC)c(OC)c3)C2)cc1OC (configuration not stated),,inconclusive: -13.7%
COc1ccc(OC)c2sc(N3CCN(C(=O)c4ccco4)CC3)nc12,"inconclusive: 35.5 µM [falling, single point]",
COc1ccc(/C=C/C(=O)c2ccc(C(=O)/C=C/c3ccc(OC)c(OC)c3)cc2)cc1OC,"inconclusive: 11.2 µM [falling, partial curve]",
O=C(O)c1ccc(/C=N\Nc2ccc(S(=O)(=O)N3CCOCC3)cc2[N+](=O)[O-])cc1,,inconclusive: 3.63%
CC1CCCCC1NCC#CCOc1ccc(Cl)cc1 (configuration not stated),,inconclusive: -7.4%
CC1CC(=O)NN=C1c1ccc(NCCO)c([N+](=O)[O-])c1 (configuration not stated),,inconclusive: 0.0496%
O=C(CC1CCCCC1)Nc1nc2ccccc2s1,,inactive
CCOC(=O)/C(C#N)=C1/SC(CC)C(=O)N1c1ccc(C)cc1 (configuration not stated),,inactive
CCCn1c2ccccc2c2nc3ccccc3nc21,"inconclusive: 20.6 µM [rising, partial curve, poor fit]",
c1ccc2oc(-c3[nH]ncc3CN(Cc3ccncc3)CC3CCCO3)cc2c1 (configuration not stated),,inactive
CC1CCC(NC(=O)c2cc3c(=O)n(C)c4ccccc4c3n2C)CC1 (configuration not stated),"inconclusive: 2.31 µM [rising, partial curve, poor fit]",
CC(C)Oc1nnnn1-c1ccccc1,,inconclusive: 6.15%
CCNS(=O)(=O)c1ccc(NC(=O)Cn2nc(C(F)(F)F)cc2C)cc1,,inactive
Cc1cccc(NC(=O)CNC(=O)c2ccc3nc[nH]c3c2)c1C,,inactive
CCc1nc(N)c(C#N)c(-c2ccc(OC)c(OC)c2)c1C,,inconclusive: -23.8%
CCc1cc(C(=O)N=Nc2c(O)[nH]c3ccc([N+](=O)[O-])cc23)c2ccccc2n1,,inconclusive: 3.43%
CCOc1ccc(/C=N/NC(=O)c2cc3c(OC)cc(OC)cc3[nH]2)cc1OC,,inconclusive: 4.88%
COc1ccc(OCCCC(=O)Nc2ccc(OC)c(S(=O)(=O)N3CCOCC3)c2)cc1,,inconclusive: -1.92%
CC(C)NC(=S)NNc1nc2ccccc2s1,,inconclusive: 3.32%

# 20 entries from above, with bars between the fields:
SMILES | Potency | activity change, negative = inhibition
COc1ccc(/C=C/C(=O)Nc2ccc(-n3nncc3-c3ccc(OC)c(OC)c3)cc2)cc1OC | inconclusive: 11.6 µM [falling, partial curve] | 
CC(C)CC(NC(=O)c1ccccc1NC(=O)c1ccccc1)C(=O)O (configuration not stated) | inconclusive: 35.5 µM [falling, single point] | 
O=C(OCc1c(Cl)cccc1Cl)c1cccnc1 |  | inconclusive: -12.7%
Cc1ccn2c(C(=O)N/N=C\c3ccc4c(c3)OCO4)c(C)nc2c1 |  | inconclusive: -0.846%
CCN(CC)S(=O)(=O)c1cc(NC(=O)C(C)N2CCN(c3ccccn3)CC2)ccc1C (configuration not stated) |  | inconclusive: -8.99%
CCOC(=O)c1cccc(NC(=O)c2ccc3c(c2)OCO3)c1 | inconclusive: 12.6 µM [falling, single point] | 
COc1ccc(C(=O)Nc2cccc(-c3cc4ccccc4oc3=O)c2)cc1[N+](=O)[O-] |  | inconclusive: -3.41%
OC(CN1CCN(c2ccccn2)CC1)Cn1c2ccccc2c2ccccc21 (configuration not stated) |  | inconclusive: -21.8%
COc1ccc(S(=O)(=O)N2CCC(C(=O)Nc3ccccc3N3CCCC3)CC2)cc1OC |  | inconclusive: -2.47%
Fc1ccc(/C=C2\CCCC3=C2NC(=S)NC3c2ccc(F)cc2)cc1 (configuration not stated) |  | inactive
COc1cccc(CNC(=O)c2ccccc2NC(=O)C2=C(C)OCCS2)c1 |  | inactive
CCCC(C(=O)NC1CCCCC1)N(Cc1ccco1)C(=O)CNS(=O)(=O)c1ccccc1 (configuration not stated) | inconclusive: 0.116 µM [rising, full curve] | 
COc1cc(CC(=O)OCC(=O)Nc2cc([N+](=O)[O-])ccc2F)cc(OC)c1OC | inconclusive: 2.91 µM [falling, partial curve, poor fit] | 
COc1ccc(OC)c2sc(N3CCN(C(=O)c4ccco4)CC3)nc12 | inconclusive: 35.5 µM [falling, single point] | 
O=C(O)c1ccc(/C=N\Nc2ccc(S(=O)(=O)N3CCOCC3)cc2[N+](=O)[O-])cc1 |  | inconclusive: 3.63%
CC1CC(=O)NN=C1c1ccc(NCCO)c([N+](=O)[O-])c1 (configuration not stated) |  | inconclusive: 0.0496%
CCCn1c2ccccc2c2nc3ccccc3nc21 | inconclusive: 20.6 µM [rising, partial curve, poor fit] | 
c1ccc2oc(-c3[nH]ncc3CN(Cc3ccncc3)CC3CCCO3)cc2c1 (configuration not stated) |  | inactive
CCNS(=O)(=O)c1ccc(NC(=O)Cn2nc(C(F)(F)F)cc2C)cc1 |  | inactive
Cc1cccc(NC(=O)CNC(=O)c2ccc3nc[nH]c3c2)c1C |  | inactive

# Additional entries:

SMILES,Potency,"activity change, negative = inhibition"
COc1ccccc1C(=O)Nc1ccon1,,inconclusive: 4.6%
Cc1cccc(Nc2ccc(C(=O)N3CCOCC3)cn2)c1,,inconclusive: -23%
O=C(CCCCCN1C(=O)c2ccccc2C1=O)NCc1ccccn1,"inconclusive: 12.6 µM [rising, partial curve]",
COc1nc(NCC(C)C)nc(Oc2ccc(OCc3ccccc3)nn2)n1,"inconclusive: 29.1 µM [falling, single point]",
COCCn1c(SCc2ccccc2)nc2c1c(=O)[nH]c(=O)n2C,,inconclusive: -1.2%
N#CC(C(=O)Nc1cccc(Cl)c1)=C1Nc2ccccc2N1,"inconclusive: 0.259 µM [rising, full curve, poor fit]",
O=Cc1cn(-c2ccccc2)nc1-c1ccc(F)cc1,,inconclusive: 10.9%
COc1ccc(C/C(C)=N/NC(=S)Nc2ccccc2F)cc1,"inconclusive: 35.5 µM [cytotoxic, single point]",
COCCNCCOCCOc1ccc(Cl)c(C)c1,"inconclusive: 6.51 µM [rising, partial curve, poor fit]",
CC(=O)c1sc2nc(C)c3c(c2c1N)CCCC3,,inconclusive: 12.2%
COc1ccccc1C(=O)Nc1ccc(NC(=O)c2ccco2)cn1,,inactive
Cc1c(Nc2nc3ccccc3nc2NS(=O)(=O)c2cccc(Cl)c2)c(=O)n(-c2ccccc2)n1C,"inconclusive: 18.4 µM [falling, partial curve, poor fit]",
O=C(O)c1ccccc1OC(=O)C12CC3CC(CC(C3)C1)C2,,inconclusive: 4.18%
O=C(CNC(=O)c1cccc(F)c1)N/N=C/c1cccs1,,inconclusive: 1.16%
Oc1c(C(c2ccccn2)N2CCC(Cc3ccccc3)CC2)cc(Cl)c2cccnc12 (configuration not stated),"inconclusive: 5.62 µM [falling, single point]",
CCOC(=O)c1ccc(N/N=C/c2cc(Br)cc([N+](=O)[O-])c2O)cc1,"inconclusive: 11.2 µM [falling, partial curve]",
CC(=O)c1cccc(NC=C2C(=O)OC3(CCCCC3)OC2=O)c1,,inconclusive: 0.31%
C/C(=N\Nc1ccc(C(=O)O)cc1)c1nc2ccccc2n1C,"inconclusive: 0.517 µM [falling, full curve, poor fit]",
CCOc1ccc(CCNC(=O)COC(=O)c2ccco2)cc1OCC,"inconclusive: 6.51 µM [falling, single point]",
